Data as given in PubChem BioAssay AID504791 (Drosophila RNAi Screening Center, 2011).
Purpose: 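Factors in Argonaute-based small RNA production and activity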 (primary screen). System: Drosophila S2-derived reporter cells. Reagents: long dsRNA against Drosophila genes, about 150-250 ng dsRNA per well (siRNA assay); about 80-120 ng (miRNA assay). Duration: about 5 days (siRNA assay); about 4 days (miRNA assay). Treatment: copper sulfate induction of reporters: 25 µM (siRNA assay); 200 mM stated (miRNA assay), 1-2 days before reading. Read-out: 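Per-well ratio of Renilla over firefly light, expressed relative to that plate's average ratio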. Units: stable assay Renilla, run 1 in luminescence; stable assay firefly, run 1 in luminescence. Call rule: 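a well was a first-pass pick when its plate-scaled ratio rose above 1.5 (siRNA assay) or 1.6 (miRNA assay), or dropped below 0.6; a gene counted only if two separate dsRNAs agreed on retest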.
In all, the deposit lists about 23,000 reagents; shown is an unselected part of those that have a named target and a result. In the full data, 199 (0.86%) were called active. 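Plate-scaled ratios behind the calls are not deposited; printed light signals are raw; many rows marked increased or decreased are still called inactive.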 Entries without a mark were called inactive. Names joined by + are all predicted targets of the reagent. No sequences are given here. Not stated in the record: the direction of the score.

Depletion of CG32373 [DRSC08895] gave: stable assay Renilla, run 1 = 3932; stable assay firefly, run 1 = 3.00e5.
Silencing of CG12728 [DRSC17883] gave: stable assay Renilla, run 1 = 8497; stable assay firefly, run 1 = 4.48e5.
alpha-Man-Ic [DRSC21674] gave stable assay Renilla, run 1 = 8864; stable assay firefly, run 1 = 4.86e5.
Silencing of CG1722 [DRSC20547] gave: stable assay Renilla, run 1 = 6466; stable assay firefly, run 1 = 4.12e5.
For shtd [DRSC20166], the entry reads stable assay Renilla, run 1 = 8252; stable assay firefly, run 1 = 4.33e5.
Knock-down of CG5773 [DRSC06955] came out at: stable assay Renilla, run 1 = 9171; stable assay firefly, run 1 = 3.70e5.

2 entries from above, reduced to “stable assay firefly, run 1”.
alpha-Man-Ic [DRSC21674] = 4.86e5
CG1722 [DRSC20547] = 4.12e5

Continued.
After knock-down of mmy [DRSC02002], the screen gave stable assay Renilla, run 1 = 16399; stable assay firefly, run 1 = 8.59e5.
After knock-down of cutlet [DRSC00284], the screen gave stable assay Renilla, run 1 = 4072; stable assay firefly, run 1 = 3.96e5.
Depletion of ref(2)P [DRSC03601] resulted in: stable assay Renilla, run 1 = 7256; stable assay firefly, run 1 = 4.35e5.
Knock-down of Idh3g [DRSC15699] gave: stable assay Renilla, run 1 = 6918; stable assay firefly, run 1 = 3.67e5.
For Mfap1 [DRSC08154], the entry reads stable assay Renilla, run 1 = 9601; stable assay firefly, run 1 = 2.97e5.
CanA1 [DRSC16600] scored stable assay Renilla, run 1 = 7427; stable assay firefly, run 1 = 3.20e5.
After knock-down of CG6163 [DRSC10595] the results were stable assay Renilla, run 1 = 5748; stable assay firefly, run 1 = 3.85e5.
With knock-down of TORIP [DRSC10104] the results were stable assay Renilla, run 1 = 8690; stable assay firefly, run 1 = 3.52e5.
For sturkopf [DRSC08637], the values are stable assay Renilla, run 1 = 9265; stable assay firefly, run 1 = 3.26e5.
After knock-down of lap [DRSC12628], the screen gave stable assay Renilla, run 1 = 7722; stable assay firefly, run 1 = 4.06e5.
For CG33251 (retired record) + CG9915 [DRSC20217], the entry reads stable assay Renilla, run 1 = 4639; stable assay firefly, run 1 = 3.06e5.
Knock-down of CG14982 [DRSC08440] came out at: stable siRNA reporter change reporter ratio raised past the hit cutoff; stable assay Renilla, run 1 = 4235; stable assay firefly, run 1 = 1.63e5.
CG14982 [DRSC23022] scored stable assay Renilla, run 1 = 3635; stable assay firefly, run 1 = 2.77e5.
